Test results as given in paper PMC11638703 (RSC Advances, 2024).

Test system: MCF-7 cells
Test: Cytotoxicity, MTT assay, MCF-7 cells
Assay type: cell-based
Conditions: Homo sapiens, MCF7, read-out: IC50 ± SD

SMILES: CN[C@@H]1C[C@H]2O[C@@](C)([C@@H]1OC)n1c3ccccc3c3c4c(c5c6ccccc6n2c5c31)C(=O)NC4 [Staurosporine, reference compound]
- IC50: 6.76 µM
